The target in this data set is T1, ProXp-ala WT (Caulobacter crescentus) (UniProt Q9ABV9).
T1 sequence (looked up): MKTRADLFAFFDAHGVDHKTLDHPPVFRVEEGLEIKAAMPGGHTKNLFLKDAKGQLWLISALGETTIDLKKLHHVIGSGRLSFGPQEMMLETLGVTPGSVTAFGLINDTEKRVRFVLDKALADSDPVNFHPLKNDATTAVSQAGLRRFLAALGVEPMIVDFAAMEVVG
The data set is described as follows: NMR. The conditions noted are these: 100 μM each, NMR: same phosphate buffer, 10% D2O, 25 °C, recombinant protein, residues 1-168.

The comparison behind a weaker result is the experiment's own reference, which may not be listed here. Tags and fusion partners may be left off the protein sequences shown.

Turning to “GGGCGAGUUCGCUCGCCCACCA [G1:C72-microhelixPro]”, the binding result is listed as “binds more weakly”.

On to “CGGCGAGUUCGCUCGCCGACC [ΔA76-microhelixPro]”, for which, where the note is “minimal binding”, the binding result is “binds more weakly”. Consider “CGGCGAGUUCGCUCGCCGACC [3'pΔA76-microhelixPro]”, for which, under “CSPs very similar to ΔA76, 3' phosphate on terminal C”, the binding result is given as “binds more weakly”.

These data come from article PMC10164551, “Structural basis of tRNAPro acceptor stem recognition by a bacterial trans-editing domain”.
